Experimental data taken from the supplement of paper PMC5949888.
Most values lie at the floor of the assay. Slopes are relative: functional sequences can read slightly below zero.

Tested on: Saccharomyces cerevisiae PS128 hsf1 delta, HSF1(1-493) fusion
Experiment: growth estimate (transactivation domain function in HSF1 fusion, heat-shock survival) (a.u. (slope of normalised read count over time)); higher = stronger growth at 37°C, i.e. more transactivation activity
Conditions: library: random library

Row | Substance | growth estimate
1 | FDW | 0.181
2 | FGPEIYASLRVDSESFSISG | < -0.25
3 | ATRLKVGCWLTQYEPSTSLA | < -0.25
4 | NVDRVCVIRTW | < -0.25
5 | IVKTHGLSFLPSMQDPLEVR | < -0.25
6 | WREI | < -0.25
7 | GARSLDSAGEAQFRMD | < -0.25
8 | SARVRFVDGKSSKCGVRADV | < -0.25
9 | PASVYGEWEGRFLGHSYNLS | < -0.25
10 | IIECAKT | < -0.25
11 | KTIISSRVLASTLGFN | < -0.25
12 | SVHRGSRKYL | < -0.25
13 | MFAQNSAFHVLSFVSGSGIS | < -0.25
14 | MLARGSIY | < -0.25
15 | YPHPRQAHVGMQCTGCAEVH | < -0.25
16 | GQYGYGDVSDGVPLHRSRCE | < -0.25
17 | GLLSRQERGSNINGY | -0.245
18 | PQKPTPRAILLSLLPYSTYG | < -0.25
19 | NGHFTE | < -0.25
20 | SKFCDVSMCRHWVMFA | < -0.25
21 | IVTSGLSKTFVILVQSRVWR | < -0.25
22 | CPDNFTQFGTGTTWDL | < -0.25
23 | KHGAQKVQ | < -0.25

Look-ups from the entries so far.
Value of WREI under growth estimate: < -0.25
Value of FDW under growth estimate: 0.181
Value of NVDRVCVIRTW under growth estimate: < -0.25

Remaining list, next part.

Row | Substance | growth estimate
24 | PQKKRDIASSGFGGS | < -0.25
25 | YDILQPRVLCVHGRSPSCFT | < -0.25
26 | SSGAWRLHESCSGTSRVHHQ | -0.246
27 | HPGYRKRRAVQQQFARV | < -0.25
28 | PWALPD | < -0.25
29 | KWAHLRILVTYELISHRF | < -0.25
30 | GRGDMTENLRYPAPGSP | < -0.25
31 | LVRKDLHRGSLS | < -0.25
32 | RSKGRRFNRSPRPMTALFPQ | < -0.25
33 | PYMSFSAVHRASLMRTCRVN | -0.103
34 | GSRRTVVVSCS | < -0.25
35 | NMETVVPKGINSAGTTTGTS | < -0.25
36 | PFDGICNLSLPQVGTKKLHR | < -0.25
37 | TPAVVAWELSEK | < -0.25
38 | TKDPGMNLSVRSARCRFNPL | < -0.25
39 | VSSFQR | < -0.25
40 | GDLCGAIKRCAYVRDYISHV | < -0.25
41 | PTGRGRRHGTTRKGFSEYTK | < -0.25
42 | TGKGVEVGFEINCLKYVPAS | < -0.25
43 | NCHSLHVLVHLRRRQEVAPG | < -0.25
44 | SPSMKAPLAWRLTGPVPLDV | < -0.25
45 | SSSRPVETDVPNIHGSTGVS | < -0.25
46 | QVQLHRRHPMH | < -0.25

Row | Substance | growth estimate
47 | RVSEIMHLL | -0.245
48 | LAQPCIWVLTIGPPETA | < -0.25
49 | AHLFGSLER | < -0.25
50 | KHEKVTLI | < -0.25
51 | LTSNG | < -0.25
52 | RSVYMEADHDHHSRRA | < -0.25
53 | FWKRPAMESLCSERCGTCAT | < -0.25
54 | PFHVTVRRLTA | < -0.25
55 | ICRLGPGIPPSKPLKRSDLT | < -0.25
56 | TLTKSRSHVTARNVMACCPD | < -0.25
57 | MDG | < -0.25
58 | DAEEHLPFLSLMDGKLAIQ | < -0.25
59 | GDSPHSLNF | < -0.25
60 | TYKILRHFHIRTAWKLPITV | < -0.25
61 | KWTSLWTTTSSSSTSWRLHD | 6.76
62 | PVFLWSRSATCQLE | < -0.25
63 | WRNKL | < -0.25
64 | LLSVSAGSAHSEGKLI | < -0.25
65 | MRTSLVRDRL | < -0.25
66 | RGVRVFKAGH | < -0.25
67 | GRPGVSARVGQRFNWWPAMV | < -0.25
68 | LLAIVTQPCP | < -0.25
69 | LVPLCLYMHEANN | < -0.25

2 records picked at random from the list so far, as already listed:
Row | Substance | growth estimate
47 | RVSEIMHLL | -0.245
61 | KWTSLWTTTSSSSTSWRLHD | 6.76

Later entries:

Row | Substance | growth estimate
70 | RLASLAV | < -0.25
71 | PETDNVRWEHVQ | < -0.25
72 | LMVDHFWSGPYLGVMDRWPA | -0.149
73 | SFNRHPPHWNAQYCFGGWAH | < -0.25
74 | SEGPKRVRIDLAPAGGAQLT | < -0.25
75 | TNCNLIPSEHLGSWPRQPWG | < -0.25
76 | PDRNTLG | < -0.25
77 | CEEGM | < -0.25
78 | IYRAQPSP | < -0.25
79 | GCQVELPRVDYLSLWGRCVT | < -0.25
80 | AVHIRFRRTTIVCSVAC | < -0.25
81 | GLRGENGTS | < -0.25
82 | PNASLGWAQVALSVAGVTNE | < -0.25
83 | ISGLVQNRQL | < -0.25
84 | DRA | < -0.25
85 | LVKPLAHCKRIWPTHSA | < -0.25
86 | TVLILVR | < -0.25
87 | EREKPSKV | < -0.25
88 | DWAVAKEKEP | < -0.25
89 | PQQELTGARILTFRASTPVP | < -0.25
90 | VDNNRDGSLGMEVMEIRKHV | < -0.25
91 | LRDCL | < -0.25
92 | RIHCSLGDVFAASALRV | < -0.25

Exported tab-delimited: entries from further up
Row	Substance	growth estimate
70	RLASLAV	< -0.25
71	PETDNVRWEHVQ	< -0.25
82	PNASLGWAQVALSVAGVTNE	< -0.25

More results follow.

Row | Substance | growth estimate
93 | HAPAQCLTQRKEDTHRRGRW | < -0.25
94 | GSRLPKL | -0.221
95 | SEGFLVPDMRVQEGGSIQGN | < -0.25
96 | QIAAVNDQTLEDLVHMVIS | < -0.25
97 | GSGEVLSPWIQLLSMPRERG | < -0.25
98 | DTFG | < -0.25
99 | GYINGHRRGQLLQPGLS | < -0.25
100 | DYLVYTNMGTTNVHYRSGAL | < -0.25
101 | FGKSPRMFGL | -0.246
102 | LCGLKPHALLSPIQHVPAHV | < -0.25
103 | GPLKRNLSSGSMTGAVRKHR | < -0.25
104 | RVIYEMLMRV | < -0.25
105 | RDVRVVQ | < -0.25
106 | PVERAIRR | < -0.25
107 | PSYG | < -0.25
108 | RTPSSVSAALR | < -0.25
109 | VADGCTSR | < -0.25
110 | LSVYSSLGVI | -0.25
111 | GLWVTRFS | < -0.25
112 | YRGPCPLKQQAYPDRKAR | < -0.25
113 | ATLIVVIQATSSHGGP | < -0.25
114 | SDPSYGEPFGVFYFC | -0.101
115 | WNGFRGIGSYMARLYVLGSG | < -0.25

Row | Substance | growth estimate
116 | LHSAKVFEYSWTFLANGRSI | < -0.25
117 | RTREADGRVRTVKGILVKRR | < -0.25
118 | GSCGSKY | -0.246
119 | YQKDFSTRWERIRMGWDIPD | < -0.25
120 | RVQ | < -0.25
121 | RRQT | < -0.25
122 | NAGLNR | < -0.25
123 | IYCRTRVNTRLGNRREAHIG | < -0.25
124 | WYHRVARRD | < -0.25
125 | ISMHSLR | < -0.25
126 | AVFCAATGYSDSP | < -0.25
127 | MTG | < -0.25
128 | EISSRNRGVMPIRLIMAGMR | -0.168
129 | VTAAAIWVGDCEKPWT | < -0.25
130 | TGRDCTT | < -0.25
131 | SSLDRRVIANS | < -0.25
132 | EGTWIIRVYTKFSEALGTSA | < -0.25
133 | YSASGRMM | < -0.25
134 | ITYMTQGISIPSVVAYISSG | < -0.25
135 | SFESLTVEKNAG | < -0.25
136 | LKRKGGRACVEQDYVGNPVS | < -0.25
137 | VVCQKTSTDGLAVPVGTAG | < -0.25
138 | LVH | < -0.25

Row | Substance | growth estimate
139 | IASRFTRVPSPTPVISKWVP | < -0.25
140 | KYERLKLGATSFETLGIT | < -0.25
141 | FWELKGFNSILHRKDTFSPV | < -0.25
142 | TILGQILSRRTRCHGAIGVS | < -0.25
143 | QVLLKVYSSSMY | -0.185
144 | ACGAWPTRSG | < -0.25
145 | RSTLLDRSNTSVPQITHFAV | < -0.25
146 | PHILLSLPYCRRCVGSPYNC | < -0.25
147 | TSLGETTVWTNFG | < -0.25
148 | APWTDYADPFWCRAYPAYGE | -0.0476
149 | LRHGLLLEHIRQTNGEEECR | < -0.25
150 | WYR | < -0.25
151 | RGSGNERLRLVECPCVSLTI | < -0.25
152 | YRIGILAAVLAF | < -0.25
153 | WHETYGIGD | < -0.25
154 | VECTRRL | < -0.25
155 | MVRNGYGPIPREILIMSRVQ | < -0.25
156 | LFAVIVEFNEARPVA | < -0.25
157 | IHKYDER | < -0.25
158 | LTVRLKRVDTRV | < -0.25
159 | NRPSECL | < -0.25
160 | ESNYEVP | < -0.25
